Reference: patent publication US20180110740A1, “METHODS AND MATERIALS FOR TREATING ENDOMETRIOSIS” (Mayo Foundation for Medical Education and Research, priority 2015, published 2018)
For at least one compound, name, drawing or mass did not settle the structure.

System: endometriotic lesions
Experiment: Endometriotic lesion model: autologous uterine segments implanted onto the peritoneum of Klf11-/- or wt mice
Type: in vivo
Details: 0.2 μg/g of body weight, evaluated three weeks after treatment, vs DMSO
Protocol: FIG. 4 is a schematic diagram showing the design of the mouse endometriosis model. Two 0.5 cm uterine fragments are everted, so that the endometrium faces the peritonel cavity. These are then sutured to the flank peritoneum on either side by 8/0 proline microfilament suture.
FIG. 5 contains photographs of Klf11^-/- and wt animals induced to produce endometriosis lesions and treated with DMSO (control), garcinol (0.2 μg/g of body weight, or suberoyl anilide hydroxamic acid (SAHA; 50 μg/g of body weight). SAHA is also known as N-hydroxy-N′-phenyl-octanediamide or vorinostat. Endometriotic progression was evaluated three weeks after treatment. The arrows point to and define lesion associated scarring.
In another experiment, endometriotic lesions were induced in Klf11^-/- or wildtype (wt) mice (n=10 for each group) by implanting autologous 5 mm uterine segments onto the peritoneum (FIGS. 3 and 4). […] In addition, COL1A1 polypeptide expression was increased in implants from Klf11^-/- animals (FIGS. 3D and 3H) as compared to those from wt animals (FIGS. 3C and 3G).

Compound: C=C(C)[C@@H](CC=C(C)C)C[C@@]12C[C@@H](CC=C(C)C)C(C)(C)[C@@](CC=C(C)C)(C(=O)C(C(=O)c3ccc(O)c(O)c3)=C1O)C2=O [garcinol]
- lesion associated scarring: ameliorated scarring
